Laboratory results reported in PubChem BioAssay AID688 (PCMD, 2007).
The whole screen tested about 27,000 compounds, of which about 250 (0.93%) were called active. The inconclusive results got no clear call from the source; some entries with a clear call stand among them for comparison.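 The calls were made as follows: active = mutant luminescence inhibited past about 50% while wild type luminescence and mutant growth stay under set limits (limit read from the data); inconclusive = mutant versus wild type luminescence inhibition gap past a set limit; inactive = the rest.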

Test: GCN4-lacZ reporter reduction in eIF2B-epsilon mutant yeast, primary screen, S. cerevisiae, eIF2B-epsilon R284H, Beta-Glo luminescence (AID 688)
Details: hits give high values, screened at 25 µM (by protocol)
Procedure, shortened: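 Material – yeast eIF2B-epsilon R284H mutant carrying GCN4–beta-galactosidase fusion · Medium – YPD yeast growth medium · Compound – one concentration, 25 µM, 0.25% DMSO · Times – 16 h at 30 °C exposure · Signal – Beta-Glo luminescence plus absorbance at 595 nm · Read-out – % inhibition of reporter signal and growth versus controls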
In the case of `N#Cc1c(N2CCOCC2)nc(-c2ccco2)c2c1CCCC2`, the inhibition was active: 57%.
With `O=C(O)c1cc2c(ccc3ccccc32)[nH]1` the inhibition was inconclusive: 60.9%.
For `Cc1cc(=O)oc(C)c1C(=O)NCC(C)NC(=O)c1c(C)cc(=O)oc1C` (stereo not drawn), the inhibition was inactive: 21.7%.
With `CCC(C)(C(=O)NC1CCCCC1)N(Cc1ccco1)C(=O)c1ccc2c(c1)OCO2` (stereo not drawn) the inhibition was inconclusive: 66.1%.
For `Cc1cc(C(=O)Nc2ccccc2C(F)(F)F)no1`, the inhibition was inconclusive: 65.2%.
With `Cn1c(/N=C/c2c(O)ccc3ccccc23)nc2ccccc21` the inhibition was inconclusive: 57.2%.
With `C=CCn1c(N)cc(=O)nc1SCC(=O)Nc1ccccc1` the inhibition was active: 57.8%.
For `CC(C)C(NC(=O)c1ccccc1)C(=O)NC1=NCCS1` (stereo not drawn), the inhibition was active: 52.3%.
For `O=C(C1CCN(S(=O)(=O)N2CCOCC2)CC1)N1CCOCC1`, the inhibition was inconclusive: 91.9%.
In the case of `Nc1ccc2nc(-c3ccccc3)sc2c1`, the inhibition was active: 72.4%.
For `CC(=O)OC(C(=O)N1CCN(c2ccccc2F)CC1)c1ccccc1` (stereo not drawn), the inhibition was inactive: -25.8%.
With `COc1cc(/C=N/n2cnnc2)ccc1OCc1ccc(C)cc1` the inhibition was inactive: 9.43%.
With `Cn1c(=O)cc(SCC(=O)NCCCN2CCOCC2)c2ccccc21` the inhibition was inconclusive: 58.9%.
For `O=C(CC(C(=O)N1CCc2ccccc21)n1ccnc1)NCC1CCCO1` (stereo not drawn), the inhibition was inconclusive: 66.2%.
With `CC(=O)c1cnc2c(-c3ccc(Cl)cc3)c(C)nn2c1C` the inhibition was inconclusive: 56%.
For `O=C(c1cc(C2CC2)nc2ccc(Br)cc12)N1N=C(C(F)F)CC1(O)C(F)F` (stereo not drawn), the inhibition was inactive: -49.4%.
For `CCOC(=O)Cc1csc(NC(NC(=O)CC)(C(F)(F)F)C(F)(F)F)n1`, the inhibition was inconclusive: 63.3%.
In the case of `CCCCNC(=O)OC1CCS(=O)(=O)C1` (stereo not drawn), the inhibition was active: 55.2%.
